Test results published in PMC10522396.
Results are given in words; binding and its absence hold for the method and conditions named. Binding seen in cells or lysates may run through a third protein. Some binding calls cover weakened binding; strength is not graded here.

Protein sequences, listed by entry. Tags and fused reporters are not part of them.
UniProt P08699: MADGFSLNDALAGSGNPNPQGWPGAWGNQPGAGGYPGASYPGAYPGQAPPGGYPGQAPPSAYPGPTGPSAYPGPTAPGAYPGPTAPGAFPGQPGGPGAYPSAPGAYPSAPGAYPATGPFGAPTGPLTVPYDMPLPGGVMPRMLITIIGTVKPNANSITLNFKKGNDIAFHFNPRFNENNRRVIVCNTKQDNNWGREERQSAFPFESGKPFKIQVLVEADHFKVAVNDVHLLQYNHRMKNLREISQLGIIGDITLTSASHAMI

Target: Galectin-3 (rat (endogenous in Sprague-Dawley rat brain)) (UniProt P08699)
Assay: co-IP; rat brain tissue lysed in cell lysis buffer (Sham, ICH, ICH+shRNA-control, ICH+shRNA-Gal-3, ICH+LV-control, ICH+LV-Gal-3 groups); incubated 3 h at 4 °C with Gal-3 antibody or rabbit IgG (negative control), then 8 h at 4 °C with Protein A/G Plus-Agarose; washed five times; TLR-4 detected by western blot

B1: TLR-4 (receptor, UniProt Q9QX05 26-835)
chain: NPCIEVLPNITYQCMDQNLSKIPHDIPYSTKNLDLSFNPLKILRSYSFTNFSQLQWLDLSRCEIETIEDKAWHGLNQLSTLVLTGNPIKSFSPGSFSGLTNLENLVAVETKMTSLEGFHIGQLISLKKLNVAHNLIHSFKLPEYFSNLTNLEHVDLSYNYIQTISVKDLQFLRENPQVNLSLDLSLNPIDSIQAQAFQGIRLHELTLRSNFNSSNVLKMCLQNMTGLHVHRLILGEFKNERNLESFDRSVMEGLCNVSIDEFRLTYINHFSDDIYNLNCLANISAMSFTGVHIKHIADVPRHFKWQSLSIIRCHLKPFPKLSLPFLKSWTLTTNREDISFGQLALPSLRYLDLSRNAMSFRGCCSYSDFGTNNLKYLDLSFNGVILMSANFMGLEELEYLDFQHSTLKKVTEFSVFLSLEKLLYLDISYTNTKIDFDGIFLGLISLNTLKMAGNSFKDNTLSNVFTNTTNLTFLDLSKCQLEQISRGVFDTLYRLQLLNMSHNNLLFLDPSHYKQLYSLRTLDCSFNRIETSKGILQHFPKSLAVFNLTNNSVACICEYQNFLQWVKDQKMFLVNVEQMKCASPIDMKASLVLDFTNSTCYIYKTIISVSVVSVLVVATVAFLIYHFYFHLILIAGCKKYSRGESIYDAFVIYSSQNEDWVRNELVKNLEEGVPRFQLCLHYRDFIPGVAIAANIIQEGFHKSRKVIVVVSRHFIQSRWCIFEYEIAQTWQFLSSRSGIIFIVLEKVEKSLLRQQVELYRLLSRNTYLEWEDNALGRHIFWRRLKKALLDGKALNPDETSEEEQEATTLT
B1 was tested. Which binding did it give?
The binding was “binds”.
